No constants are given. Whether binding was seen depends on the method and setting. Some binding calls cover weakened binding; strength is not graded here. For part of these data: Where a sequence is shown, tags or fusion partners need not be part of it.
Experiments:
[1] = target: T1, N-terminal fragment (470 aa) of UPL3 containing armadillo repeats (A. thaliana) (UniProt Q6WWW4); assay: two-hybrid; GAL4-based two-hybrid system 3 (Clontech); baits in pGBKT7-BD, preys in pGADT7-AD; growth on SD/-LTH or SD/-ALTH
T1 sequence: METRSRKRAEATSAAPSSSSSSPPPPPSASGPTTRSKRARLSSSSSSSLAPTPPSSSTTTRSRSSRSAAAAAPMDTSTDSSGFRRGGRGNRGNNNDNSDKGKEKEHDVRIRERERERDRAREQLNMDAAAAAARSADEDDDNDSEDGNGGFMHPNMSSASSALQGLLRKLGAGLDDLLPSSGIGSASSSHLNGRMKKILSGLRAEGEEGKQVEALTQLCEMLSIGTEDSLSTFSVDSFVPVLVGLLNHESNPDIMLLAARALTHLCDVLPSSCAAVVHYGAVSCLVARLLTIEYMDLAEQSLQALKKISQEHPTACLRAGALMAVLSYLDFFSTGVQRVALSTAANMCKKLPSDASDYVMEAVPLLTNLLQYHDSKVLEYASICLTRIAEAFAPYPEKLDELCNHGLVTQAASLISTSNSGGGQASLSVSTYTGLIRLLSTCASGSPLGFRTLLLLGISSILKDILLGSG

[2] = target: full-length UPL3 bait (A. thaliana) (UniProt Q6WWW4); assay: as above

B1: N-terminal fragment (470 aa) of UPL3 containing armadillo repeats (domain or fragment, UniProt Q6WWW4 1-470)
chain: T1 sequence
[1]
  binding: binds
[2]
  binding: no binding

B2: UPL5 (two-hybrid fusion) (enzyme, UniProt Q9SU29 1-873)
chain: MTLSRSSADDSTNNANRSYSAVAGTDNKRKRDEDSSDYVGVAESLEMLKKQEIDADHMAASAQQTLISWRSGENSRSLSSSGECSSSNRPESTRLQIFVRMMSGGKTIVIHAEKYDTVEKLHQRIEWKTKIPALEQRVIYKGKQLQRENSLTYYSIEQDASLQLVARMQSTEHPVAWQTIDDIMYTISRMYKGENLQSNINEKIVTFFAMIPVESDESIAKYLNIFSNSSVPAALVMLYASSLERNKSCAKSSVKLFLSNCVALPKNQKNYCLPIVLEFCKLLRKVCPDQKLYVTCRNTLGSMLETFDNPHGVYNDQYETFGVEIFPFFTELTGLLLNELAQNSGPSFCDFQKVSSFWQQLRKVIELKVAFPIPIVLPMQSTALEAEIRHLHRLFGSLLTTMDLCMCRVESSLADKEVGNSETMSSSWSQYLSILKIINSMSNIYQGAKGQLAVMLNKNKVSFSALVVKFAKRGDDHQWIFEYKEATNFEARRHLAMLLFPDVKEDFEEMHEMLIDRSNLLSESFEYIVGASPEALHGGLFMEFKNEEATGPGVLREWFYLVCQEIFNPKNTLFLRSADDFRRFSPNPASKVDPLHPDFFEFTGRVIALALMHKVQVGVLFDRVFFLQLAGLKISLEDIKDTDRIMYNSCKQILEMDPEFFDSNAGLGLTFVLETEELGKRDTIELCPDGKLKAVNSKNRKQYVDLLIERRFATPILEQVKQFSRGFTDMLSHSVPPRSFFKRLYLEDLDGMLRGGENPISIDDWKAHTEYNGFKETDRQIDWFWKILKKMTEEEQRSILFFWTSNKFVPVEGFRGLSSKLYIYRLYEANDRLPLSHTCFYRLCIPRYPTITLMEQRLRLIAQDHVSSSFGKW
[1]
  binding: no binding

— paper PMC9354775
